Reference: PubChem BioAssay AID743454 (Peter MacCallum Cancer Centre, 2014)
Test: 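Knock-downs lowering viability or raising caspase 3/7 activity in vorinostat-treated resistant cells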 (primary screen). Cells: human HCT116-VR colon cancer cells, selected for vorinostat resistance. Reagents: siRNA pool against human genes, 40 nM siRNA pool. Timing: vorinostat for 24 h, read-out about 72 h after transfection. Conditions: vorinostat at 2.5 µM final. Measurement: 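Cell viability by CellTiter-Fluor and caspase 3/7 activity by luminescence, each scaled to mock wells per plate, duplicates averaged, then robust z-scored over all plates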. Scale: viability robust z-score: higher = more viable cells than screen typical; caspase robust z-score: higher = more caspase 3/7 activity than screen typical. Call rule: 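a knock-down is a hit when classed RV1 or RV2 for lowered viability, or CA1 or CA2 for caspase activation; those lethal without drug were dropped; hits were retested singly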.
Shown is an unselected part of about 18,000 reagents. 450 of them (2.5%) were called active. 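Single biological run; no consistent viability z cut-off exists, so the class columns, not z-scores, define the calls.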 Unmarked entries are inactive. Reagent sequences are not shown.

gene	PubChem SID	viability hit class	caspase hit class	viability robust z-score	caspase robust z-score
RPL24 (GeneID 6152)	SID135622067	no change	no change	-4.83	-1.64
ZNRF2 (GeneID 223082)	SID134312286	no change	no change	-0.28	-0.53
MED12 (GeneID 9968)	SID152147641	no change	no change	0.25	-1.01
TP53I13 (GeneID 90313)	SID135622958	no change	no change	-1.58	4.37
EPB41L5 (GeneID 57669)	SID135621996	no change	no change	0.02	0.34
ZNF200 (GeneID 7752)	SID135624214	no change	no change	-0.1	2.69
OSBPL3 (GeneID 26031)	SID134314134	no change	no change	0.57	-0.5
APPBP2 (GeneID 10513)	SID135622501	no change	no change	0.02	-0.44
LRP6 (GeneID 4040)	SID135620747	no change	no change	1.66	0.55
NMRK2 (GeneID 27231)	SID152147205	no change	no change	0.15	-0.74
LINC00303 (GeneID 284573)	SID135623600	no change	no change	0.04	-0.72
OR2M5 (GeneID 127059)	SID152155527	no change	no change	0.38	-0.77
MAGEB6 (GeneID 158809)	SID134323075	no change	no change	-1.02	-0.64
FOLR3 (GeneID 2352)	SID152150279	no change	no change	-0.56	0.34
RPL35A (GeneID 6165)	SID134317764	no change	no change	-5.31	-1.24
FGF6 (GeneID 2251)	SID134310137	no change	no change	-0.74	-0.34
TRIM68 (GeneID 55128)	SID152155085	no change	no change	0.31	-0.52
ASB18 (GeneID 401036)	SID135625157	no change	no change	1.18	-0.73
ELOA (GeneID 6924)	SID152156527	no change	no change	1.04	-0.24
CDH3 (GeneID 1001)	SID134310099	no change	no change	-0.6	-0.6
C11orf68 (GeneID 83638)	SID134322431	no change	no change	-1.58	2.83
CELA1 (GeneID 1990)	SID135621085	no change	no change	-0.43	-0.12
LRRC63 (GeneID 220416)	SID152151214	no change	no change	0.18	-0.17
STAG3 (GeneID 10734)	SID135623884	no change	no change	0.38	0.4
IL17D (GeneID 53342)	SID134312875	no change	no change	1.28	0.16
LAMC3 (GeneID 10319)	SID152149323	no change	no change	-0.1	-0.8
MED9 (GeneID 55090)	SID134317585	no change	no change	-0.48	-0.02
TEX15 (GeneID 56154)	SID152150323	no change	no change	-0.08	0.41
PRODH (GeneID 5625)	SID134314275	no change	no change	-0.97	1.08
HOXA5 (GeneID 3202)	SID134321504	no change	no change	-1.21	-0.6
WDHD1 (GeneID 11169)	SID152148385	no change	no change	-2.4	0.66
CTSW (GeneID 1521)	SID152154404	no change	no change	-1.05	0.94
WDR82 (GeneID 80335)	SID152147586	no change	no change	0.74	-0.72
SEZ6L2 (GeneID 26470)	SID135621497	no change	no change	1.21	-0.39
PPP2R1B (GeneID 5519)	SID152152420	no change	no change	-0.42	-0.06
IRGC (GeneID 56269)	SID134324664	no change	no change	0.18	0.6
TRAF6 (GeneID 7189)	SID134310585	no change	no change	-0.01	0.62
SCRN1 (GeneID 9805)	SID152152569	no change	no change	0.06	-0.77
CSF1R (GeneID 1436)	SID152152485	no change	no change	-2.57	1.29
PASK (GeneID 23178)	SID56478950	no change	no change	-0.36	3.83
CXADR (GeneID 1525)	SID134309992	no change	no change	0.97	-0.65
TAS1R2 (GeneID 80834)	SID135621067	no change	no change	-2.1	4.26
NRXN3 (GeneID 9369)	SID152154257	no change	no change	1.17	-0.52
TJP2 (GeneID 9414)	SID135621862	no change	no change	1.55	0.31
BAHD1 (GeneID 22893)	SID152147677	no change	no change	0.5	2.93
RGS13 (GeneID 6003)	SID135621928	no change	no change	-0.3	-0.73
TPRX1 (GeneID 284355)	SID152149240	no change	no change	0.46	-0.26
S1PR1 (GeneID 1901)	SID152154612	no change	no change	0.09	0.27
IRX4 (GeneID 50805)	SID134324497	no change	no change	-1.02	2.54
TOB2 (GeneID 10766)	SID152152290	no change	no change	0.16	1.58
MAP2K6 (GeneID 5608)	SID135620765	no change	no change	0.98	-0.38
RASSF6 (GeneID 166824)	SID134322323	no change	no change	0.76	2.06
LCAT (GeneID 3931)	SID134314352	no change	no change	-0.26	0.66
CDKL5 (GeneID 6792)	SID135620888	no change	no change	-0.16	-0.94
POLR3C (GeneID 10623)	SID152152432	no change	no change	1.35	0.04
OR4K1 (GeneID 79544)	SID134329834	no change	no change	-0.58	-0.28
GIP (GeneID 2695)	SID152156504	no change	no change	0.57	1.46
ADRB2 (GeneID 154)	SID135620986	no change	no change	1.34	-0.88
NINJ2 (GeneID 4815)	SID152152033	no change	no change	-0.18	-0.76
SRSF1 (GeneID 6426)	SID152150073	no change	no change	-1.27	-0.68
DCAF16 (GeneID 54876)	SID152154219	no change	no change	0.24	-0.68
HRNR (GeneID 388697)	SID152152164	no change	no change	-1.11	0.92
SNAPC3 (GeneID 6619)	SID152146943	no change	no change	0.17	-0.74
CYB5R4 (GeneID 51167)	SID152149884	no change	no change	-0.84	-0.98
CCN3 (GeneID 4856)	SID134315027	no change	no change	-0.14	-0.75
H4C8 (GeneID 8365)	SID135622129	no change	no change	1.15	1.77
ANKS4B (GeneID 257629)	SID152152771	no change	no change	-0.06	-1.06
C11orf65 (GeneID 160140)	SID152149139	no change	no change	-1.42	3.87
GNB1L (GeneID 54584)	SID152156192	no change	no change	-0.38	0.37
CUX1 (GeneID 1523)	SID135622163	no change	no change	0.48	-0.2
WDR55 (GeneID 54853)	SID152153733	no change	no change	-1.17	-0.27
ARID5A (GeneID 10865)	SID134325528	no change	no change	-0.48	1.92
SP100 (GeneID 6672)	SID152155236	no change	no change	0.29	-0.89

Part of the list above, set out differently.
gene | PubChem SID | viability hit class | caspase hit class | viability robust z-score | caspase robust z-score
TEX15 (GeneID 56154) | SID152150323 | no change | no change | -0.08 | 0.41
PRODH (GeneID 5625) | SID134314275 | no change | no change | -0.97 | 1.08
HOXA5 (GeneID 3202) | SID134321504 | no change | no change | -1.21 | -0.6
WDHD1 (GeneID 11169) | SID152148385 | no change | no change | -2.4 | 0.66
CTSW (GeneID 1521) | SID152154404 | no change | no change | -1.05 | 0.94
WDR82 (GeneID 80335) | SID152147586 | no change | no change | 0.74 | -0.72
SEZ6L2 (GeneID 26470) | SID135621497 | no change | no change | 1.21 | -0.39
PPP2R1B (GeneID 5519) | SID152152420 | no change | no change | -0.42 | -0.06
IRGC (GeneID 56269) | SID134324664 | no change | no change | 0.18 | 0.6
TRAF6 (GeneID 7189) | SID134310585 | no change | no change | -0.01 | 0.62
